# Data as given in patent US20020032166A1, “Biocompatible cationic detergents and uses therefor” (University Technology Corporation, priority 1992, published 2002).
# At least one compound was matched to its structure with a doubt left.
# Experiment: Apparent water/1-octanol partition coefficient of SDS hydrophobic ion pair complexes
# Conditions: SDS:peptide mole ratio 2:1; 1-octanol/water
smiles,measurement,value
"NC(=O)CC[C@@H]1NC(=O)[C@H](Cc2ccccc2)NC(=O)[C@H](Cc2ccc(O)cc2)NC(=O)[C@@H](N)CSSC[C@@H](C(=O)N2CCC[C@H]2C(=O)N[C@@H](CCCN=C(N)N)C(=O)NCC(N)=O)NC(=O)[C@H](CC(N)=O)NC1=O [AVP, 8-Arg-vasopressin]",log P (apparent water/1-octanol partition coefficient),> 1
